Out of some 360,000 compounds screened, about 7,500 (2.1%) were called active. This list was built around the results that the source calls inconclusive (neither active nor inactive); the mix of calls is not that of the screen. Calls come from the whole dose curve; as a rule, active = well fitted inhibition curve with a large enough effect; inconclusive = small, poorly fitted or top-dose-only effect, or effect the other way; inactive = flat fitted curve, though single readings scatter. Potencies of inconclusive entries are doubtful fits and often do not repeat.
experiment: Nrf2 qHTS screen for inhibitors; details: A549 ARE-Fluc reporter, luciferase luminescence, 18-24 h; activity change, negative = inhibition: at 46 µM (top of the series); note: nearly all actives have a fitted effect of over 60% in size
Summary of the method: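 Nrf2 function is reported as luminescence of an ARE-controlled luciferase in A549 cells. Compounds were tested at several concentrations, and a CellTiter-Fluor read on the same wells flagged cytotoxicity.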
% is set by controls: 0 for no effect and ±100 for the full control effect; potency is the fitted concentration of half-maximal effect.

SMILES	Potency	activity change, negative = inhibition
Cc1nnc(SCC(=O)NCC(=O)Nc2ccc(F)c(F)c2F)n1N	inconclusive: 16.4 µM [falling, partial curve, poor fit]	
O=C(NCC1CCCO1)c1cc2c(s1)CCC2 (stereo unspecified)	inconclusive: 5.8 µM [activator, single point]	
Cc1ccn2c(Nc3ccc4c(c3)OCO4)c(-c3ccc(N(C)C)cc3)nc2c1	inactive	
Cc1ccc(S(=O)(=O)Nc2ccc3c(c2)CC(=O)N([C@H](C)CO)C[C@@H](C)[C@H](CN(C)Cc2ccc(-c4ccccc4)cc2)O3)cc1	inconclusive: 25.9 µM [falling, single point]	
CCc1ccc(NC(=O)C2=CC(c3ccc(OC)cc3)=NS(=O)(=O)N2C)cc1	inconclusive: 29.1 µM [falling, partial curve, poor fit]	
FC(F)Oc1ccc(C2N=C(c3ccccc3)NO2)cc1 (stereo unspecified)	inconclusive: 2.91 µM [activator, full curve]	
O=C1c2ccc(Oc3ccc([N+](=O)[O-])cc3)cc2C(=O)N1CCCO	active: 4.11 µM	
Cc1ccc(-c2cn3nc(C)c(C)nc3n2)cc1	inconclusive: 0.206 µM [activator, full curve, poor fit]	
Cc1nc2nncn2c(NCc2ccc(Cl)cc2)c1C	active: 3.26 µM	
NS(=O)(=O)c1ccc(CNS(=O)(=O)c2cccc3nonc23)cc1	inactive	
CCOc1ccc2nc(SC3CC(=O)N(c4ccc(OC)cc4)C3=O)sc2c1 (stereo unspecified)	inconclusive: 2.06 µM [activator, partial curve, poor fit]	
Cc1ccc(-n2c(=O)c3c4c(sc3n(Cc3cccc(Cl)c3)c2=O)CCC4)cc1C		inactive: -3.7% [at 9.27 µM]
COc1ccc(OC)c(-c2csc(NC(=O)Cc3cc(OC)c(OC)c(OC)c3)n2)c1	inconclusive: 16.4 µM [falling, partial curve]	
N#Cc1ccc(CO/N=C/c2ccccc2)cc1	inconclusive: 16.4 µM [activator, single point]	
Cc1ccc(C)c2[nH]c(=O)c(CCNC(=O)c3ccc4c(c3)OCO4)cc12	inconclusive: 10.3 µM [falling, partial curve]	
Cc1ccc(CN(C(=O)COc2ccc(Cl)c(C)c2)C2CCS(=O)(=O)C2)o1 (stereo unspecified)	inactive	
COc1ccc(OC)c(C2=Nn3c(nnc3-c3ccccc3OC)SC2)c1	inactive	
O=S(=O)(/N=C(/Nc1nc2ccccc2s1)c1ccccc1)c1ccccc1	inconclusive: 29.1 µM [activator, single point]	
C=C1CCN(C(C)C(=O)O)S(=O)(=O)c2ccccc21 (stereo unspecified)	inconclusive: 2.06 µM [falling, full curve, poor fit]	
Cc1cccc(OCCCCn2c(CO)nc3ccccc32)c1	inconclusive: 3.66 µM [falling, partial curve, poor fit]	
O=C(O)c1cc2n(n1)C(C(F)(F)F)CC(c1ccccc1)N2 (stereo unspecified)	inconclusive: 29.1 µM [activator, single point]	
CCN(CC(=O)Nc1c(F)cccc1F)C(=O)CSc1nc2ccccc2o1	inconclusive: 0.231 µM [falling, full curve, poor fit]	

SMILES	Potency	activity change, negative = inhibition
Cn1c(=O)cc(OCC(=O)NCc2cccs2)c2ccccc21	inconclusive: 14.6 µM [activator, partial curve, poor fit]	
CCOc1ccc(Nc2ncnc3c2cnn3Cc2ccccc2)cc1	inconclusive: 23.1 µM [falling, single point]	
CCOC(=O)c1cccc(NC(=O)C2CCCN(S(=O)(=O)c3ccc4c(c3)oc(=O)n4C)C2)c1 (stereo unspecified)	inactive	
O=C(CSc1nnc(Cc2cccs2)n1CCc1ccccc1)N1CCCc2ccccc21	inconclusive: 6.51 µM [activator, partial curve]	
CCN(CC)c1nc(C#N)nc(N2CCOCC2)n1	active: 23.1 µM	
COc1ccc(Cn2c(=O)sc3ccccc32)cc1	inconclusive: 32.6 µM [falling, single point]	
Cc1cc(-c2nnc(CCC(=O)NC(c3ccccc3)c3ccccc3)o2)no1	inconclusive: 9.2 µM [activator, partial curve]	
Cc1ccc2sc3ccc(NC(=O)c4ccccc4Cl)cc3c(=O)c2c1	inconclusive: 2.06 µM [falling, full curve, poor fit]	
CC(=O)c1c(C)[nH]c(C(=O)OCc2cccc(Cl)c2)c1C	inconclusive: 8.2 µM [falling, partial curve, poor fit]	
Cc1csc(NC(=O)C2CCCN(S(=O)(=O)c3cnc[nH]3)C2)n1 (stereo unspecified)		inconclusive: 35.3% [activator]
CC(C)NC(=O)/C(C#N)=C\c1ccc(N(C)C)o1	inconclusive: 29.1 µM [activator, single point]	
Cc1cc(C(=O)N2CCc3ccccc3C2)c(C)o1	inconclusive: 29.1 µM [activator, partial curve, poor fit]	
COc1ccc(C(=O)/C=C/c2cc(C(=O)O)cc3c2OCOC3)c(O)c1	inconclusive: 2.06 µM [falling, full curve, poor fit]	
FC1(F)Oc2ccc(-c3ccc4ncnc(NCc5cccs5)c4c3)cc2O1	active: 13 µM	
CCc1ccc(N2CC(C(=O)NC3CC3)CC2=O)cc1 (stereo unspecified)	inconclusive: 6.51 µM [activator, single point]	
CC1(C(=O)NCCN2CCOCC2)C=CC2(CCCCC2)N1C(=O)c1ccccc1 (stereo unspecified)	inconclusive: 23.1 µM [activator, single point]	
CC1CCc2c(sc3nc(C4CC4)nc(N4CCN(C(=O)c5ccco5)CC4)c23)C1 (stereo unspecified)	inconclusive: 29.1 µM [falling, single point]	
CC(O)CN1CC(O)=C(c2nc3ccccc3s2)C1=N (stereo unspecified)	inconclusive: 2.31 µM [falling, partial curve, poor fit]	
Cc1ccc(NC(=O)CSCc2ccco2)cc1	inconclusive: 9.2 µM [activator, partial curve, poor fit]	
COc1ccc(-c2c3c(=O)n(C)c(=O)n(C)c3c3c(-c4cccc(C)c4)nc4ccccc4n23)cc1	inconclusive: 20.6 µM [falling, single point]	
Clc1ccc(C2Nc3cccc4cccc(c34)N2)cc1	inactive	
O=C(CNCc1ccccc1)Nc1ccc(Cl)cc1	inconclusive: 4.61 µM [activator, full curve]	

SMILES	Potency	activity change, negative = inhibition
CC1CN(CC(=O)Nc2cccc(C(=O)Nc3cccc(C(F)(F)F)c3)c2)CC(C)O1 (stereo unspecified)	active: 16.4 µM	
CCn1cnc2cc(NCc3ccc(Br)cc3)ccc21	inconclusive: 7.31 µM [activator, partial curve]	
COc1ccc(C(=O)N2CCCC(CCC(=O)NCc3ccc(F)c(F)c3)C2)o1 (stereo unspecified)	inconclusive: 16.4 µM [activator, partial curve, poor fit]	
CC(C)(C)n1ncc2c(=O)n(CC(=O)NCc3ccccc3)cnc21	inconclusive: 0.206 µM [activator, full curve, poor fit]	
COc1ccc(CNC(=O)CSc2nnc3c(n2)[nH]c2ccc(C)cc23)cc1	inactive	
CCN(CC)C(=O)c1sc2nc(-c3ccc(OC)cc3)cn2c1C	inconclusive: 7.31 µM [activator, partial curve]	
CC1CCCCN1CCNC(=O)c1ccc2c(c1)N(Cc1cccc(Cl)c1)C(=O)c1ccccc1S2=O (stereo unspecified)	inconclusive: 23.1 µM [activator, single point]	
Cc1ccc(Nc2nc(C)cs2)cc1	inconclusive: 18.4 µM [activator, partial curve]	
CC1(C)Cc2cccc(OCC(=O)Nc3cc(S(C)(=O)=O)ccc3Cl)c2O1	inconclusive: 13 µM [falling, partial curve, poor fit]	
O=C(NCCc1cccs1)c1cccs1	inconclusive: 14.6 µM [activator, partial curve]	
Cc1ccc(C)c(CN2CCC(CNC(=O)Nc3ccc(Br)cc3F)CC2)c1	inactive	
CN1C(=O)c2cccc3c(N(C)C)ccc(c23)C1=O	inactive	
Cc1cc(C(=O)CSc2nnc(-c3ccco3)o2)c(C)n1Cc1ccco1	inconclusive: 13 µM [falling, partial curve]	
Cn1c(=O)c2[nH]c(CCCCCCCCc3nc4ccccc4[nH]3)nc2n(C)c1=O	active: 8.2 µM	
CC(C)(C)C(=O)Nc1ccc2oc(-c3cc(F)c(F)cc3Cl)nc2c1	inconclusive: 1.03 µM [activator, full curve, poor fit]	
Cc1cccc(NC(=O)C2CCC(CNC(=O)[C@@H]3Cc4ccccc4CN3)CC2)c1 (stereo partly specified)	inconclusive: 29.1 µM [activator, single point]	
O=C(Nc1ccc(S(=O)(=O)N2CCOCC2)cc1)C1CCN(S(=O)(=O)c2ccc(F)cc2)CC1	inconclusive: 18.4 µM [falling, single point]	
O=C(CC(SCCO)c1ccc2c(c1)OCO2)c1ccco1 (stereo unspecified)	inconclusive: 16.4 µM [activator, partial curve, poor fit]	
Clc1cccc(-c2nc(-c3ccc(-c4nn[nH]n4)cc3)no2)c1	inconclusive: 3.66 µM [activator, full curve, poor fit]	
CN(C)CCCn1c2c(c(SCC(=O)Nc3cccc4ccccc34)nc1=O)CCCC2	inactive	
CCN(CC)c1ccc(-n2c(C)cc(C=O)c2C)cc1	inconclusive: 25.9 µM [falling, partial curve, poor fit]	
CCS(=O)(=O)c1ncc(Cl)c(C(=O)Nc2ccc(C)cc2)n1	inconclusive: 29.1 µM [falling, single point]	

3 compounds already listed, ordered by heavy-atom count, high to low:
SMILES	Potency	activity change, negative = inhibition
CC1CCCCN1CCNC(=O)c1ccc2c(c1)N(Cc1cccc(Cl)c1)C(=O)c1ccccc1S2=O (stereo unspecified)	inconclusive: 23.1 µM [activator, single point]	
CC1CN(CC(=O)Nc2cccc(C(=O)Nc3cccc(C(F)(F)F)c3)c2)CC(C)O1 (stereo unspecified)	active: 16.4 µM	
CC(C)(C)n1ncc2c(=O)n(CC(=O)NCc3ccccc3)cnc21	inconclusive: 0.206 µM [activator, full curve, poor fit]	

Reference: PubChem BioAssay AID504444 (National Center for Advancing Translational Sciences (NCATS), 2011)
